Measurements from patent US20190092839A1.
No constants are given. Whether binding was seen depends on the method and setting. Where a sequence is shown, tags or fusion partners need not be part of it.

Biological target: TOMM20-EGFP
Experiment: both split fragments co-expressed with the antigen in HeLa cells, fluorescence microscopy before 488 nm light

- binding: no binding
B1: N-term VHHGFP-nMagH-mCherry (protein, not shown: large carriers)
chain: MDQVQLVESGGALVQPGGSLRLSCAASGFPVNRYSMRWYRQAPGKEREWVAGMSSAGDRSSYEDSGGGGSGGGGSHTLYAPGGYDIMGYLDQIGNRPNPQVELGPVDTSCALILCDLKQKDTPIVYASEAFLYMTGYSNAEVLGRNCRFLQSPDGMVKPKSTRKYVDSNTINTIRKAIDRNAEVQVEVVNFKKNGQRFVNFLTIIPVRDETGEYRYSMGFQCETE
